Reference: paper PMC4826439

Sequences of proteins named here, by UniProt entry; tags and fusion partners are left off. A change or cut given only in a name is not applied to a line headed by its entry.
UniProt Q9Z148: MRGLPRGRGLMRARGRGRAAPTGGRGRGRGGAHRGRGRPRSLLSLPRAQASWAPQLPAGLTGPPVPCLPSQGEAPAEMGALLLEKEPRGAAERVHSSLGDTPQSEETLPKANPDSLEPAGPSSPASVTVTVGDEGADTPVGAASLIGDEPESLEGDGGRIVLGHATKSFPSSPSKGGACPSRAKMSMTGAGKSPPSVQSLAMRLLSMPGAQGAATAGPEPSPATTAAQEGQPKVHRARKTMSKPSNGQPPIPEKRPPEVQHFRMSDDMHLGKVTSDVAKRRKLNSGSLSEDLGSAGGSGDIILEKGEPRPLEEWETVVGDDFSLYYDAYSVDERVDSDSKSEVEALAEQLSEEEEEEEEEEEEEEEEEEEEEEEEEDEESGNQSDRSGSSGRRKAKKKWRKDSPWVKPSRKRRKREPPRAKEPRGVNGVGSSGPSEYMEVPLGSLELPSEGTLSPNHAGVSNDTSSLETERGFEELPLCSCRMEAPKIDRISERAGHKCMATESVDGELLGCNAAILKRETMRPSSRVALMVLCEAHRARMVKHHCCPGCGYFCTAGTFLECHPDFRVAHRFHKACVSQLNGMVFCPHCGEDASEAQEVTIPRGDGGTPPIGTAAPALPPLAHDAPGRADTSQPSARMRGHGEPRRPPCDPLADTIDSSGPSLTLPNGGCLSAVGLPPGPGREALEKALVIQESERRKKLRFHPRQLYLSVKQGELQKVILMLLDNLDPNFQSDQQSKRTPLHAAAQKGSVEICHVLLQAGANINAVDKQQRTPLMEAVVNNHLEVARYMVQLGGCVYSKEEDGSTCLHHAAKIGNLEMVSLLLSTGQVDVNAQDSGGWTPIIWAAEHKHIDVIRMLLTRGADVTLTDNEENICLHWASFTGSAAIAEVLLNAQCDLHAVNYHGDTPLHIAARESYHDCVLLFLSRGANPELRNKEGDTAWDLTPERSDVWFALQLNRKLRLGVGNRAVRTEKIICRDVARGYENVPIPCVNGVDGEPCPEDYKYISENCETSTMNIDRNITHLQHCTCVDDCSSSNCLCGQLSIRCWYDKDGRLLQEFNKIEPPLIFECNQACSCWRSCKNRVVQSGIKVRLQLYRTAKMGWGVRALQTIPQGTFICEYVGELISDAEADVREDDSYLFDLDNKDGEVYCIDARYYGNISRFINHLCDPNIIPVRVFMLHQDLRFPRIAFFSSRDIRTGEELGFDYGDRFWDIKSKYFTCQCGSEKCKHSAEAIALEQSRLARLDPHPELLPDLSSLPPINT

Molecular target: shRNA-resistant G9a with ANK domain point mutations, unable to bind H3K9me1/me2 (shR-ANKm) (UniProt Q9Z148)
Experiment: co-IP; immunoprecipitation with anti-G9a antibody from 400-500 ug of nuclear extract of ESC lines expressing shR forms of G9a (endogenous G9a knocked down); western blot

binding: binds
Substance: DNMT3B (from UniProt O88509 1-859)

No constants are given. Whether binding was seen depends on the method and setting. In cells and extracts the contact can be indirect. A result given as binding can be weak or reduced; the word gives no strength.
